Laboratory results taken from the RNAGym collection of RNA variant scans (doi:10.1126/science.aae0568).
Variants at the background level are over-represented here.

B1: tRNA (parent)
chain: GUUCCGUUGGCGUAAUGGUAACGCGUCUCCCUCCUAAGGAGAAGACUGCGGGUUCGAGUCCCGUACGGAACG

Variants of: B1
Assay: yeast fitness relative to wild type (ratio to wild type); higher = fitter; tRNA-Arg(CCU), competitive growth, 37 C, YPD
Procedure, shortened: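 Genotype frequency changes were the basis for Darwinian fitness relative to wild type. The frequencies came from 100-nucleotide paired-end sequencing of gene amplicons from the start population and each end population of pooled yeast strains with tRNA-Arg(CCU) gene variants at the native locus. Competition ran in YPD at 37°C for 24 hours in six replicates, genotypes needed ≥ 100 starting reads, and estimates < 0.5 were set to 0.5.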

GUUCAGUUGGCGUAAUGGUAACGCGUCUCCCUCAUAAGGAGAAGAUUGCGGGUUCGGGUCCCGUACGGAACG and GUUCCGUUGGCGUAAUGGUAACGCCGCUCCCUCCUAAGGAGAAGAGUGCGAGUUCGAGUCCCGUACGGAUCG cannot be ordered by yeast fitness: at most 0.5 for the first, at most 0.5 for the second.

Compared with GUUCCGUUGGCGUAAUAGUAACGCGCCUCCCUCCUAAGGAGAAGACUGCGGGUUCGAGUCUCGUACAGAACG, GUUCCGUUGGCGUAAUGGUGACGCGUCUCCCUCCUAAGGAGAAGACUGCGGGUUCGAGACCCGUACGGACCG is higher in yeast fitness: at most 0.5 for the first, 0.646 for the second.

First: GUUCCGUUGGCGUCAUGGUAACGCGUCUCCCUCCUAAGGAGAAGACUGCGCGUUCGAGUCCCGUACGGAACG
Second: GUUCUGUUGGCGUAAUGGUAACGCGUCUCCCUCCUAAGGAGAAGACUGCGGGUUCGAGUCACGUACGGAACG
The yeast fitness of the first is lower: 0.53 for the first, 0.612 for the second.

GUUCCGUAGGCGUAAUGGUGACGCGUCUCCCUCCUAAGGAGAAGACUGGGGGUUCGCGUCCCGUACGGAACG and GUCCCGUCGGCGUGAUGGUAACGCGUCGCCCUCCUUAGGAGAAGAUUGCGGGUUCGAGUCCGGUACGCAACG cannot be ordered by yeast fitness: at most 0.5 for the first, at most 0.5 for the second.

Going from GUUCCGUUGGCGUACUGGUAACGCGUCUCCCUCCUAAGGAGAAGACAGCGGGUUCGAGUCCCGUACGGAACG to GUUCCGUUGGGGUAAUGGUAACGGGUCUCCAUCCUAAGGAGAAGAUUAUGGGUUCGAGUCCCGUACGGAACG, the yeast fitness falls from 1.09 to at most 0.5.

First: GUUCCGUUCGCGUAUUGGUAACGCGUCUCCCUCCUAAGGAGAAGACUGCGGGUUCGAGUCCCGUACGGUACG
Second: GUUCCGUUGGCGUAAUGGUAAAGCGUCUCCCCCCUAAGGAGAAGACUGCGGGUUCGAGUCCCGUAUGGAACG
The yeast fitness of the first is lower: at most 0.5 for the first, 0.503 for the second.

GUUCUGUUGCCGUAAUGGUAACGCGUCUCCCUCCUAAGGAGAAGACUGCGGGUUCGUGUCCCGUACGGAACG and GUUCCGUUGGCGUAAUGGUAACGCGUUUCGCUCCUAAGGAGAAGACUGCGGGUUCGAGUCCCGUAAGGAUCG cannot be ordered by yeast fitness: at most 0.5 for the first, at most 0.5 for the second.

Going from GUUCCGUUGGCGUAAAGGUAACGCGUCAGCCUCCUAAGGAGAAGACUGCGGGUUCGAGUCCCGUACGGAGCG to GUUCCGUUGGUGUAAUGGUAACGCGUCUCCCUCCUAAGGAGAAGACUGCGGGUUCGAGUCCGAUACGGAACG, the yeast fitness rises from at most 0.5 to 0.529.

GUUCGGUUGGCGUAAUGGUAACGCGUCUCCCUCGUAAGGAGAAGACUGUGGGUUCGAGUCCCGUACGGAACG and GUUCCGUUGCCGUAAUGGUAACGCGUCUCCCUUCUAAGGAGAAGACUGCGGGUUCGAGUCCAGUACGGAACG cannot be ordered by yeast fitness: at most 0.5 for the first, at most 0.5 for the second.

GUUUGGUCGGCGUAAUGGUAACGCGUCGCCCUCUUAAGGAGAAGACUGCGGGAUCCAGUCCCGUACGGAACG and GUUCCGUUGGCGUACUAGUAACGCGUCUCCCUCCUAACGAGAAGACUGCGGGUUCGAGUCUCCUACGGAACG cannot be ordered by yeast fitness: at most 0.5 for the first, at most 0.5 for the second.

GUUCCGUUGGCGGAAUGCUAACGCGUCUCCCUCCUAAGGAGAAGACGGCGGGUUCGAGUCCCGUACGGCACG and GUUCGGUUGGCGUUAUGGUCACGCGUCUCCCUCCUAAGGAGAAGACUGCGGGUUCGAGUCCCGUUCGGAACG cannot be ordered by yeast fitness: at most 0.5 for the first, at most 0.5 for the second.

GUUCCGUUGGCGUAAUGGUAACGCGUCGCCCUCCUAAGGACAAGACUGCGGGAUCGAGUCCCGUACGGAACG and GUUCCAUUGGCGUAAUCGCAACGCGUCUACCCCCUAAGGAGAACACUACGGGUUCGAGUCCCGUACGGAACG cannot be ordered by yeast fitness: at most 0.5 for the first, at most 0.5 for the second.

GUUCCGUUGGCGUAAUGGUAACGGGUUUCCCUCCUAAGGUGAAGACUGCGGGUUCGAGUCCCGUACGGAACG and GUUCCGUUGGCGUAAUGGUAACGCGUCUGCCUCCUAAGGAGAAGACUGGGGGUUCGAGUCCCCUACGGAACG cannot be ordered by yeast fitness: at most 0.5 for the first, at most 0.5 for the second.

Compared with GUUCAGUUGGCGUAAUGGUAACGCGUCUCCCUCCUAAGGAGAAGAUUGCGGGUUCGAGUCCCGUACGGAACG, GUUCUGUUGGCGUAAUGGUCACGCGUCUUCCUCAUAAGGAGAAGAAUGCAGGUUCGUGUCCCGUACGGAACG is lower in yeast fitness: 0.997 for the first, at most 0.5 for the second.

GUUCCGUUGGCGUAAUGGUAACGCGUUUCCCUACUAAGGAGAAGACUGCGGGUUCGAGACCCGUACGGAACG and GUUCCGUUGGCGUAAUGGUAACGGGUCUCCCUCCUCAGGAGAAGACUGCGGGUCCGAGUCCCGUACGGACCG cannot be ordered by yeast fitness: at most 0.5 for the first, at most 0.5 for the second.

GUUCCGUUGGCGUAAUGGUGCCGCGUCUCCCUCCUAACGAGAAGACUGCGGGUUCAAGUCCCGUACGGAACG and GUUCCGUUGGCGUAAUGGUUCCGCGUCUCCCUCCUAAGGAGAAGACUGCGCGUUCGAGGCCCGUACGGAACG cannot be ordered by yeast fitness: at most 0.5 for the first, at most 0.5 for the second.

GUUCCGUUGGCGUAAUGGUAACGCGUCUCCCUCCUAAGGUGAAGACUGCGGGUUCGAGACCCGUACGGACCG and GUUCCAUUGGCGUAAUGGUAACCCGUAUCCCUCCUAAGGAGGAGACUGCGGGUUCGAGUCACGUACGGAACG cannot be ordered by yeast fitness: at most 0.5 for the first, at most 0.5 for the second.

GUUCCGUUGGCGUAAUGGUAACGGGUCUCACUCCUAAGGAGGAGACUGCGGGUUCGAGUCCCGUAAGGAACG and GUCCCGUCGGCGUUAUGGUAACGCGUCUCCCUCCUAAGGAGAAGACUGCGGGUUCGAGUCCCGUACGGAACG cannot be ordered by yeast fitness: at most 0.5 for the first, at most 0.5 for the second.

GUUCCGUUAGCGUAAUGGUAACGCGUCUCCCUUCUUAGGAGAAGACUGCGGGUUCGAGUCCUGUACGGAACG and GUUCCGUUGGCGUAAUGGUAACGCGUCUCCCUCCUAAGGAGACGUCUGGGGGUUCGAGUCUCGUACGGAACG cannot be ordered by yeast fitness: at most 0.5 for the first, at most 0.5 for the second.

GUACCGUUGGCGUAAUGGUAGCGCGUCACCCUCCUAAGGAGCAGACUGCGGGUUAGAGUCCCGUACGGUACG and GCUUCGUUGACGUAAUGGUAACGCGUCUCCCUCCUAAGGUGGAGACUGCGGGUUCGUGUCCCGUACGGAACG cannot be ordered by yeast fitness: at most 0.5 for the first, at most 0.5 for the second.

GUUCCGUUGGCGUUAUGGUAAUGCGUCUCUCUCCUAAGGAGAAGAUUGCGGCUUCGAGUCCCGUACGGAACG and GUUCAGUUGGCAUAAUGGUAACGCGUCUCCCUCCUAAGGAGAAGACUGCGGGUUCGCGUCCCGUAUGGAACG cannot be ordered by yeast fitness: at most 0.5 for the first, at most 0.5 for the second.

GUUCCGUUGGCGUAAUGGUUACGCGUCUCCCUCAUAAAGAGAAGACUGCGGGUUCGAGACCCGUACGGAACG and GCUCGGUUAGCGUAUUGGUAACGCGUCUCCCUCCUAAGGAGCAGAUUGCGGGUUCGAGUCCCGUACGGAACG cannot be ordered by yeast fitness: at most 0.5 for the first, at most 0.5 for the second.

GUUCCGUUGGCGCAAUGGUAACGCGUCUGCCUCCUAAGGCGCAGACUGCGGGUUCGAGUCCCGUACGGAACG and GUUCAGUUGGCGUCGUGGUGACGCGUCUCCCUCCUAAGGAGAAGACUGAGGGUUCGAGUCCCGUACGGAACG cannot be ordered by yeast fitness: at most 0.5 for the first, at most 0.5 for the second.

Compared with GUUCCGUUGAUGUAGUGGUAACGCGUCUCUCUCCUAAGGAGAAGACUGCGGGUUCGAGUGCCGUACGGAACG, GUUCCGUUGGCGUAAUGGUAACGCGUCCCCCUCCUAAGGAGAAGACUGCGGGUUCGAGUCCCGUGCGGAACG is higher in yeast fitness: at most 0.5 for the first, 0.998 for the second.

GUUCCGUUGACAUAAUGGUAACGCGUCUCGCUCCUAAGGAGAAGACUGCGGGUUCGAGUCCCGUACGGAACG and GUUCCGUUGACGUAAUGGUAACGCGUCUCCCUCCUAAGGAGAAGCCUGCGGGUUCGAGUCCCGUACGAAACG cannot be ordered by yeast fitness: at most 0.5 for the first, at most 0.5 for the second.

Going from GUUCCGUUGGCGUAAUGGUAACGCGUCUCCCUCCUAAGGAGAAGACAGCGGGCUCGAGUCCCGUACGGAACG to GUUCCGUUGGCGUAAUGGUAACACGUCUCCCUCCUAAGGAGAAGACUGCGGGUUCGACUCCCGUACGGAACG, the yeast fitness rises from 0.7 to 0.885.

GUUCCGUUGGCGUAAUGGUAACGCGUCUCCCUCCUAAGGAAGAGACUGCGGGUUCGGGUCCCGUACGGAACG and GUUCCGUUGGGGUAAUGGUAACGAGUCUCCCUCCUAAGGAGAAGACUGCGGGUUCGAGUCCCGUACGGAACG cannot be ordered by yeast fitness: at most 0.5 for the first, at most 0.5 for the second.

First: GUUCCGUAGGCGUAAUGGUAACGCGUCUCCCUCCUAACGAGAAGACUGCGGGUUCGAGUCACGUACGGAACG
Second: GUUCCGUUGGCCUAAUGGUAACGCGUCUCGCUCCUAUGGAAAAGACUGCGGGUUCGACUCCCGUACGGAACG
The yeast fitness of the first is lower: at most 0.5 for the first, 0.581 for the second.

GUUCGGUUGGCGUAAUGGUCACGCGUCUGCCUCCUAAGGAGAACACUGCGGGUUCGAGUCCCGUACGGAACG and GUUCCGUUGGCGUAAUGGUGACGCGUCUCCCUCCUAAGGAGAAGACUGCGGGUUCGAGUUGCGUACGGAACG cannot be ordered by yeast fitness: at most 0.5 for the first, at most 0.5 for the second.

GUUCCGCUGGCGUAAUGGUAACGCGUCUCCCUCCUAAGGAACAGACUGCCGGUUCGAGUCCCGUCCGGAACG and GUUCCGUUGGCCUAGUGGUAACGCGUCUCCCUCCUAUGGGGAAGACUGCGGGUCCGAGUCCCGUACGGAGCG cannot be ordered by yeast fitness: at most 0.5 for the first, at most 0.5 for the second.

GUUCCGUUGGCGUAAUGGUAACGGGUCUCCCUCCUAAGGAGAAGACUGCGCGUUCGAGUCCCGUACGAAACG and GUUCUGUUGGCGUAAUGCUAACGCGUCUCCCUCCUAAGGAGAAGACUGUGGGUGCGAGUCCCGUACGGAACG cannot be ordered by yeast fitness: at most 0.5 for the first, at most 0.5 for the second.

GUUCCGUUGGCGUAAUGGUAACGCGUCUCCCUGCUAAGGAGAAGAAUGCGGGUUCGAGUCACGUACGGAACG and GUUCCGUUGGUGUAAUGGUAACGCGUAUACCUCCUAUGGAGAAGUCUGCGGGUUCGAGUCCCGCACGGAACG cannot be ordered by yeast fitness: at most 0.5 for the first, at most 0.5 for the second.

GUUCCGUUGGUGUAAUGGCUACGCGUCUCCCUCCUAAGGAGCAGACUGCGGGUUCGAGUCCCGUCCGGUACG and GUUCCCUUGGCGUAAUGGUAACGCGUCUCCCUCUUAAGGAGAAGACUGCGGCUUCGAGUCCCGUAUGGAACG cannot be ordered by yeast fitness: at most 0.5 for the first, at most 0.5 for the second.

GUUCCGUUGGCGUAAUGGUAAGGCCUCUCCCUCCUCAGGAGGAGACUGCGGAUUCGAGUCCCGUACGGAACG and GUUCCGUUGGCGUAAUGAUAACGCGUCUCCCUCCUAAGGACAAGACUGCGGGUACGAGUCCCGUACGGAACG cannot be ordered by yeast fitness: at most 0.5 for the first, at most 0.5 for the second.

GUUUGGCUGGGGUAAUGGUAACGCGUCUCCCUCCUAAGGGGAAGACUGCGGGUUCGUGUCCCGUACGGAACG and GGUCCGUUGGCGUAAUGGUAACGCGUCCCCCUCCUAAGGAGAAGACUGCAGGUUCGAGGUCCGUACGGAACG cannot be ordered by yeast fitness: at most 0.5 for the first, at most 0.5 for the second.

GUUCCGUUGGCGUAAUGGUAACGCGUCUCCCUCCUAAGGAGUAGACUGCAGGUUCGAGUCCUGUACGGAGCG and GUUCCGUUGGCGUAAUGGUAACGCGUCUCCCUCCUAAGGUGAAGACUGCGGGUUCGAGUCGCGUACGCAGCG cannot be ordered by yeast fitness: at most 0.5 for the first, at most 0.5 for the second.

GUUCCGUUGGCAUAAUGGUAACGCGUCUCCCUCCUAAGGAGAAGACUGAGGGUUCGAGUGCCGUACCGAACG and GUUCCGUUGGCGUAAUGGUAACGCGUGUCCCUCGUAAGGAGAAGACUGCGGGUUUGAGUCCCGUACGGAACG cannot be ordered by yeast fitness: at most 0.5 for the first, at most 0.5 for the second.

Work on GUUCCGUUGGUGUCAUGGUAAUGCGUCUCUCUCCUAAGGAGACGACUGCGGGUUCGAGUCCCGUACGGAACG yielded a yeast fitness of at most 0.5.
